Experimental data taken from the supplement of paper PMC10849652.
The other results are listed elsewhere or left out.

Chains of the proteins cited; added tags and fusions are not shown. Lines headed by an entry give the natural chain unless they say otherwise; changes in a name come on top.
UniProt Q6IQ21: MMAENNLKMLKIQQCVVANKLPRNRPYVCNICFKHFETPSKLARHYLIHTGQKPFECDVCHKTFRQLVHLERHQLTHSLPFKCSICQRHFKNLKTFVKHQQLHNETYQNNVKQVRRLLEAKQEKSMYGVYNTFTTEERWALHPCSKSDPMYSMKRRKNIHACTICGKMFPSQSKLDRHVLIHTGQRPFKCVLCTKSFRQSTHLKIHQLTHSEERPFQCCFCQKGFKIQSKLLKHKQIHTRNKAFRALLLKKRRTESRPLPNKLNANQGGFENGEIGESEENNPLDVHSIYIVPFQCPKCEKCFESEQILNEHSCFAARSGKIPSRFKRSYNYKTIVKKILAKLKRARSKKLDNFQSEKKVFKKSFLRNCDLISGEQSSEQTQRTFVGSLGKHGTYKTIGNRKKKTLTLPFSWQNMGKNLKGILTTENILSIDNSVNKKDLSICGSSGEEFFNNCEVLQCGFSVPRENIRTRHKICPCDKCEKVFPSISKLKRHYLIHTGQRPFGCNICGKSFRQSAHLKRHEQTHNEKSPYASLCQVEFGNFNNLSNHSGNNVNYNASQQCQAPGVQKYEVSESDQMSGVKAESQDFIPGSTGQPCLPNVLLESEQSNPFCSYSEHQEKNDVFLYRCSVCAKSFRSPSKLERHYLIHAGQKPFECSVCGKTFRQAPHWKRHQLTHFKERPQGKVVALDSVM
UniProt Q86VK4: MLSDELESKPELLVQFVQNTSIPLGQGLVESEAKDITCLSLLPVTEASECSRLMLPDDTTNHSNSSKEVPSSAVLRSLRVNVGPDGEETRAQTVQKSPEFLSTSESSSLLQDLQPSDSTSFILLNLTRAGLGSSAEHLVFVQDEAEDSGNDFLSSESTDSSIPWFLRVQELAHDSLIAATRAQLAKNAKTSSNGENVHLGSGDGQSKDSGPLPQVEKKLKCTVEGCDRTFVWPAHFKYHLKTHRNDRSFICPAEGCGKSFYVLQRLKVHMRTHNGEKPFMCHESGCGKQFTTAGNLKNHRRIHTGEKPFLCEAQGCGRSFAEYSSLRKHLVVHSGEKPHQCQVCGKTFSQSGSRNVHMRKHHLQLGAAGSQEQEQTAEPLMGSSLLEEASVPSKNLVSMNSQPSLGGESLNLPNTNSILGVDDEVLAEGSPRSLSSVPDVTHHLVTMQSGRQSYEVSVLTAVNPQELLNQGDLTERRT
UniProt Q8N4W9: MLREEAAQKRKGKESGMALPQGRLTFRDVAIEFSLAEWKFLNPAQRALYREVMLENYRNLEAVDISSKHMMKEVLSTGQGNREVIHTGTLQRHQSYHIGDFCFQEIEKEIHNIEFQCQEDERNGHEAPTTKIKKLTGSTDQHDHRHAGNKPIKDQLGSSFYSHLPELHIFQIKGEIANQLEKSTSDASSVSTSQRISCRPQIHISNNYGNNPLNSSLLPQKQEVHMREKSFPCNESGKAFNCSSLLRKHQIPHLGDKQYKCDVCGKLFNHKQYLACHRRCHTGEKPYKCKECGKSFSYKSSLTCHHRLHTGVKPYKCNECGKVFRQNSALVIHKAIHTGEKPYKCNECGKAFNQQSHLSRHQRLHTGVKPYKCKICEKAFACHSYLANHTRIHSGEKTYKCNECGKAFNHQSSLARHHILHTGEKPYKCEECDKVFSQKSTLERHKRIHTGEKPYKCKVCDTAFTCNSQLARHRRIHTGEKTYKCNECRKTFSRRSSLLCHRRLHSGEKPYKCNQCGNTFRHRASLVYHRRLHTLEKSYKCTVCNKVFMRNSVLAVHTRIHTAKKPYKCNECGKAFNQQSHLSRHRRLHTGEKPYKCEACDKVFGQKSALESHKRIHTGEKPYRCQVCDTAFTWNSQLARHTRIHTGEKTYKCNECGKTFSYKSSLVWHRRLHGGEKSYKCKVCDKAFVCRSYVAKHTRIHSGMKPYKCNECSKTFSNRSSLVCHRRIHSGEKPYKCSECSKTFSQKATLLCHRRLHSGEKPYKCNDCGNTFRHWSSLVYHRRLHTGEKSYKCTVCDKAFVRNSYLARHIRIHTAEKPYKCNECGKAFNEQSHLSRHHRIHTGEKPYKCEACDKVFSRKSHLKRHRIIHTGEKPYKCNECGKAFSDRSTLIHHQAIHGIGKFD
UniProt P59817: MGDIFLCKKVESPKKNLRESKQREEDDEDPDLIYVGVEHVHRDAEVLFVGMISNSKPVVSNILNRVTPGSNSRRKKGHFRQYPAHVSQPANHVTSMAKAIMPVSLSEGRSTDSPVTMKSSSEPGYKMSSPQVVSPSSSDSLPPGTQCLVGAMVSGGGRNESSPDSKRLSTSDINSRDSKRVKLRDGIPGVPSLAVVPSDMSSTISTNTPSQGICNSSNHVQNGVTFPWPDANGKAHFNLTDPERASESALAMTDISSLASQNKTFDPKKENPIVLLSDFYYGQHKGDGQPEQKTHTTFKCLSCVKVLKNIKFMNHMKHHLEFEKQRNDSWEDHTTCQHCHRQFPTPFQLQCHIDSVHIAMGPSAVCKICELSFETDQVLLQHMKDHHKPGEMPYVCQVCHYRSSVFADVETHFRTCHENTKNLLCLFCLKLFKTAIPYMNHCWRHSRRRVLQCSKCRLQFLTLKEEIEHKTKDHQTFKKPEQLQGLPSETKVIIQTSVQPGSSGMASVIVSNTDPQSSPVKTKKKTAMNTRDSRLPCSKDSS
UniProt Q16670: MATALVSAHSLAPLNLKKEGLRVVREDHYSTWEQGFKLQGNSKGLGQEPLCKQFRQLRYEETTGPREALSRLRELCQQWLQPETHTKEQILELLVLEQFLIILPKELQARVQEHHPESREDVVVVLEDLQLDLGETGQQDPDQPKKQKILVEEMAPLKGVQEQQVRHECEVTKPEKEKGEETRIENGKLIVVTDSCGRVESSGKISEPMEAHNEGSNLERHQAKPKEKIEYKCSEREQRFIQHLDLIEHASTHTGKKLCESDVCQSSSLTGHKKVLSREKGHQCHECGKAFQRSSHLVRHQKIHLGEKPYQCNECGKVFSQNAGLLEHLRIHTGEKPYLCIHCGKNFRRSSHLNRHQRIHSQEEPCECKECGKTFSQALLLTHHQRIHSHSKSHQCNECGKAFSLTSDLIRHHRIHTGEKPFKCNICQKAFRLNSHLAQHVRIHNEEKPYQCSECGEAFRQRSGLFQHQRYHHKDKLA
UniProt Q8N720: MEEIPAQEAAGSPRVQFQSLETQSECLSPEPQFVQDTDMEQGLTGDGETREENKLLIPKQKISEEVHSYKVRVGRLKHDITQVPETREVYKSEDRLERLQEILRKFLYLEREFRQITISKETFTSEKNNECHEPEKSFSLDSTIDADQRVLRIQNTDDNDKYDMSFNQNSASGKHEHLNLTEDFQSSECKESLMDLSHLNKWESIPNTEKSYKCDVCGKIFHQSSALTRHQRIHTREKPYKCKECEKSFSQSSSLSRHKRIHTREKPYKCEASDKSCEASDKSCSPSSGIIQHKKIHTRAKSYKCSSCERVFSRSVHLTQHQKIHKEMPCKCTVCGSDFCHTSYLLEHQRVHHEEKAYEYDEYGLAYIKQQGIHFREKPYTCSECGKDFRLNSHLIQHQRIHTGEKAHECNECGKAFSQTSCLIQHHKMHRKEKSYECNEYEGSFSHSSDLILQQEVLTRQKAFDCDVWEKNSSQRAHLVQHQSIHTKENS
UniProt Q8TF50: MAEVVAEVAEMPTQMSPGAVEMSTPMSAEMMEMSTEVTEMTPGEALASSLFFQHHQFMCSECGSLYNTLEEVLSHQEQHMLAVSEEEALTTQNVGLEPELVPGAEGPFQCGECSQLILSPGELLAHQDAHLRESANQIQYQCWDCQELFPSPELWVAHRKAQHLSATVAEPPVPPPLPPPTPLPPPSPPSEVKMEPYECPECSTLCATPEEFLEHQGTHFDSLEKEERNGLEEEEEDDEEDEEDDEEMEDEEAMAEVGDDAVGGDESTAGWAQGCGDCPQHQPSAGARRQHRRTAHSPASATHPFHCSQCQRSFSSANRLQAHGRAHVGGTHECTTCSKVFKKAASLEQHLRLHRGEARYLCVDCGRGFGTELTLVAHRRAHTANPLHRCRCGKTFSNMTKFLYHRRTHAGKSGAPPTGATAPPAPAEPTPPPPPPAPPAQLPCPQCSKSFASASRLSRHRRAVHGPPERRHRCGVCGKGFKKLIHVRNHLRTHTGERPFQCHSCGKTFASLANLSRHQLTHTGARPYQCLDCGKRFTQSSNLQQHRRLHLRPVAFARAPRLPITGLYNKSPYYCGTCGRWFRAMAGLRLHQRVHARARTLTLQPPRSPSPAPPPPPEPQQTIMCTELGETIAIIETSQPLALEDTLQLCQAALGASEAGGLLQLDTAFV
UniProt Q9Y5A6: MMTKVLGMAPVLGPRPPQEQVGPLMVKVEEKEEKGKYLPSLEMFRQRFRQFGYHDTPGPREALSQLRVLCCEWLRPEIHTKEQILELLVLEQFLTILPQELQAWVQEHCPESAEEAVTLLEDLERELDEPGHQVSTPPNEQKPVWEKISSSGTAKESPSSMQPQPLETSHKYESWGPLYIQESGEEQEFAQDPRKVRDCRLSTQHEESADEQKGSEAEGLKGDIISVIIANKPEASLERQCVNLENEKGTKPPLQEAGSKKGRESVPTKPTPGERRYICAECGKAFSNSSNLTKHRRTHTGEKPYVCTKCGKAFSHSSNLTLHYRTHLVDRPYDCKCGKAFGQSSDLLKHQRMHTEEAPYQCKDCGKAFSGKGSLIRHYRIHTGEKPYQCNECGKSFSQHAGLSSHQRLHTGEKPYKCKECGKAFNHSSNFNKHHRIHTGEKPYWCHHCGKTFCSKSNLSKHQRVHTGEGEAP
UniProt Q9P1U0, whole entry, looked up: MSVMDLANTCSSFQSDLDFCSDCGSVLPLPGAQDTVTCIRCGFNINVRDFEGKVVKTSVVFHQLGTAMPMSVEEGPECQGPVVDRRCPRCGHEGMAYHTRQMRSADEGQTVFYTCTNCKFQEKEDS
UniProt Q8IYI8: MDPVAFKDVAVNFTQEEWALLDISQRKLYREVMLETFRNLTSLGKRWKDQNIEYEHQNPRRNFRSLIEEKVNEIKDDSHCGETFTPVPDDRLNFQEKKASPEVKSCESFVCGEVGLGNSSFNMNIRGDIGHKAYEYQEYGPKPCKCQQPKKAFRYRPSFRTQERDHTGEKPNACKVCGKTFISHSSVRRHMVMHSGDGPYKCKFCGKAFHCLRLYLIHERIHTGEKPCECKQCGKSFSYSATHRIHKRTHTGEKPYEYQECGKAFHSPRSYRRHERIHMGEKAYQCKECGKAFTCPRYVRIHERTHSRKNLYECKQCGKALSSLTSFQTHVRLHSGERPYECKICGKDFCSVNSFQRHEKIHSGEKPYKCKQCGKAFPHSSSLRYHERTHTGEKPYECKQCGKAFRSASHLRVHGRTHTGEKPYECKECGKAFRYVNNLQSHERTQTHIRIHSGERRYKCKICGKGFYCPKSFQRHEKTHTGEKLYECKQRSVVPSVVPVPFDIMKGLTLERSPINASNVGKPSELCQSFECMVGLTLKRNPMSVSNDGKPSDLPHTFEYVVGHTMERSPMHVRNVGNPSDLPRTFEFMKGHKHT
UniProt Q6NUN9: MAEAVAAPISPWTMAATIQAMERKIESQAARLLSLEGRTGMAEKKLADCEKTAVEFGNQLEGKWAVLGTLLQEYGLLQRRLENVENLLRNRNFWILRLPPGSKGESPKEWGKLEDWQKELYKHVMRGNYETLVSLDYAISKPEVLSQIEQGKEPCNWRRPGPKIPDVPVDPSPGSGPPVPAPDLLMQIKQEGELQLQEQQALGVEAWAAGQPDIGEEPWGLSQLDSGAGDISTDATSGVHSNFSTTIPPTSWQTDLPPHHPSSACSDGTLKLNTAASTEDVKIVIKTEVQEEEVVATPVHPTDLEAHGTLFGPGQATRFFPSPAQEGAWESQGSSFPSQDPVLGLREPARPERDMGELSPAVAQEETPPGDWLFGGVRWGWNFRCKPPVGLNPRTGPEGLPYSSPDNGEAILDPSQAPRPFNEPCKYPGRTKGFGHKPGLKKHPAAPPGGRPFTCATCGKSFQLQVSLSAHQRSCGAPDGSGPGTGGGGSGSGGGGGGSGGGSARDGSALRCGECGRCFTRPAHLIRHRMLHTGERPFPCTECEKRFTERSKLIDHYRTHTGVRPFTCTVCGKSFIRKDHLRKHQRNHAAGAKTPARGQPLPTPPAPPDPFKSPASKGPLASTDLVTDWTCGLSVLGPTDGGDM
UniProt Q9H707: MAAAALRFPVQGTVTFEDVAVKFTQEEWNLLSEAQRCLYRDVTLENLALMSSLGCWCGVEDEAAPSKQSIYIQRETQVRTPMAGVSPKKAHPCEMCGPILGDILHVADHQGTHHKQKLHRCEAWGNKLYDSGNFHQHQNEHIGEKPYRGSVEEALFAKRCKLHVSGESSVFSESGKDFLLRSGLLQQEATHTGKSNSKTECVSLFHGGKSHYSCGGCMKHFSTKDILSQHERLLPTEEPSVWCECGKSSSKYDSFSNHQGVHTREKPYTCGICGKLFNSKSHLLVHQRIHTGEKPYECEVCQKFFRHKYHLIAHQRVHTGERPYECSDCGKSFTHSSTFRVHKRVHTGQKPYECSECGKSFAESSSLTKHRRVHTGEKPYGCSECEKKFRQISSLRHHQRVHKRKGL

Compound: Cc1ccc(-n2nc(C(C)(C)C)cc2NC(=O)Nc2ccc(OCCN3CCOCC3)c3ccccc23)cc1 [doramapimod]
Assay: log2 fold change, soluble protein after heating vs DMSO (PISA); higher = thermal stabilisation; K562 lysate, 10 uM; active = over 0.2 and 3.5 SD of the protein, either way, in both replicates (recomputed)
Method in brief: (§1)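 Dounce homogenisation of K562 pellets in PBS pH 7.4 with 1 mM MgCl2 produced a crude extract, used at 1 mg/mL protein. Exposure to 10 μM compound lasted 30 min, and aliquots were then heated for 3 min across 48°C-58°C, pooled and brought to 0.5% NP-40 at 4°C. The supernatant after 21,000xg for 90 min was quantified by TMTpro 16plex LC-MS/MS with channel sums equalised. Duplicate values are given as log-two fold change in thermal stability relative to solvent controls.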

| Target | log2 fold change |
| --- | --- |
| ZNF16 (UniProt P17020) | inactive: -0.011 |
| ZNF281 (UniProt Q9Y2X9) | inactive: 0.02 |
| ZNF652 (UniProt Q9Y2D9) | inactive: 0 |
| ZNF770 (UniProt Q6IQ21) | inactive: 0.079 |
| ZNF410 isoform 5 (UniProt Q86VK4) | inactive: 0.015 |
| ZNF808 (UniProt Q8N4W9) | inactive: -0.043 |
| ZMYND19 (UniProt Q96E35) | inactive: -0.081 |
| ZNF280A (UniProt P59817) | inactive: 0.337 |
| ZNF280A, A0A0G2JN84 | inactive: 0.241 |
| ZRSR2 (UniProt Q15696) | inactive: -0.085 |
| ZNF76 (UniProt P36508) | inactive: -0.028 |
| ZSCAN26 (UniProt Q16670) | inactive: 0.102 |
| ZNF646 (UniProt O15015) | inactive: 0.027 |
| ZNF655 isoform 3 (UniProt Q8N720) | inactive: 0.052 |
| ZNF184 (UniProt Q99676) | inactive: -0.21 |
| ZNF816 (UniProt Q0VGE8) | inactive: -0.229 |

Compound: Cc1cccc(CC(=O)N2CCc3c2ccc(-c2cn(C)c4ncnc(N)c24)c3F)n1
Assay: as above
Method in brief: as §1

| Target | log2 fold change |
| --- | --- |
| ZSWIM7 (UniProt Q19AV6) | inactive: 0.016 |
| ZNF655 isoform 2 (UniProt Q8N720) | inactive: -0.046 |
| ZNF526 (UniProt Q8TF50) | inactive: -0.038 |
| ZNF286A (UniProt Q9HBT8) | inactive: -0.107 |
| ZNF670 (UniProt Q9BS34) | inactive: 0.031 |
| ZSCAN21 (UniProt Q9Y5A6) | inactive: 0.068 |
| ZNF813 (UniProt Q6ZN06) | inactive: -0.078 |
| ZNRD1 (UniProt Q9P1U0) | inactive: 0.19 |

Compound: Cc1cn(-c2cc(NC(=O)c3ccc(C)c(Nc4nccc(-c5cccnc5)n4)c3)cc(C(F)(F)F)c2)cn1 [nilotinib]
Assay: as above
Method in brief: as §1

| Target | log2 fold change |
| --- | --- |
| ZNF280A (UniProt P59817) | inactive: 0.181 |
| ZNF440 (UniProt Q8IYI8) | inactive: 0.112 |
| ZNF746 isoform 2 (UniProt Q6NUN9) | inactive: -0.03 |
| ZNF526 (UniProt Q8TF50) | inactive: -0.06 |
| ZNF670 (UniProt Q9BS34) | inactive: -0.023 |
| ZNF184 (UniProt Q99676) | inactive: -0.024 |
| ZNF813 (UniProt Q6ZN06) | inactive: 0.016 |
| ZNRD1 (UniProt Q9P1U0) | inactive: 0.14 |
| ZNF552 (UniProt Q9H707) | inactive: -0.076 |
| ZNF816 (UniProt Q0VGE8) | inactive: -0.194 |
